Values are the deposited “Percent Effect”, in %. The controls that fix the scale are not given in the record; negative values are as filed. The compounds are a random part of those screened. A dash means the value is not listed here; it may have been measured.

By UniProt entry, the sequences of proteins in these tests, tags left out.
UniProt P9WFT3, whole entry: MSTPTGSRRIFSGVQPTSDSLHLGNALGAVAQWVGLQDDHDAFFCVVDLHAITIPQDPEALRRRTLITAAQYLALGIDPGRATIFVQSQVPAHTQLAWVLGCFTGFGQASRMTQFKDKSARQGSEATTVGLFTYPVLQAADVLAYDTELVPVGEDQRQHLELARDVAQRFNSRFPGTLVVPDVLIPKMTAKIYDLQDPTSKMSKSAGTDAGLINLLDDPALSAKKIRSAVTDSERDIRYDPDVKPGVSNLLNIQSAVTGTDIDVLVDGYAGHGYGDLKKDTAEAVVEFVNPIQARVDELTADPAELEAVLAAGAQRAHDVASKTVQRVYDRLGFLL
UniProt I6X8D2, whole entry: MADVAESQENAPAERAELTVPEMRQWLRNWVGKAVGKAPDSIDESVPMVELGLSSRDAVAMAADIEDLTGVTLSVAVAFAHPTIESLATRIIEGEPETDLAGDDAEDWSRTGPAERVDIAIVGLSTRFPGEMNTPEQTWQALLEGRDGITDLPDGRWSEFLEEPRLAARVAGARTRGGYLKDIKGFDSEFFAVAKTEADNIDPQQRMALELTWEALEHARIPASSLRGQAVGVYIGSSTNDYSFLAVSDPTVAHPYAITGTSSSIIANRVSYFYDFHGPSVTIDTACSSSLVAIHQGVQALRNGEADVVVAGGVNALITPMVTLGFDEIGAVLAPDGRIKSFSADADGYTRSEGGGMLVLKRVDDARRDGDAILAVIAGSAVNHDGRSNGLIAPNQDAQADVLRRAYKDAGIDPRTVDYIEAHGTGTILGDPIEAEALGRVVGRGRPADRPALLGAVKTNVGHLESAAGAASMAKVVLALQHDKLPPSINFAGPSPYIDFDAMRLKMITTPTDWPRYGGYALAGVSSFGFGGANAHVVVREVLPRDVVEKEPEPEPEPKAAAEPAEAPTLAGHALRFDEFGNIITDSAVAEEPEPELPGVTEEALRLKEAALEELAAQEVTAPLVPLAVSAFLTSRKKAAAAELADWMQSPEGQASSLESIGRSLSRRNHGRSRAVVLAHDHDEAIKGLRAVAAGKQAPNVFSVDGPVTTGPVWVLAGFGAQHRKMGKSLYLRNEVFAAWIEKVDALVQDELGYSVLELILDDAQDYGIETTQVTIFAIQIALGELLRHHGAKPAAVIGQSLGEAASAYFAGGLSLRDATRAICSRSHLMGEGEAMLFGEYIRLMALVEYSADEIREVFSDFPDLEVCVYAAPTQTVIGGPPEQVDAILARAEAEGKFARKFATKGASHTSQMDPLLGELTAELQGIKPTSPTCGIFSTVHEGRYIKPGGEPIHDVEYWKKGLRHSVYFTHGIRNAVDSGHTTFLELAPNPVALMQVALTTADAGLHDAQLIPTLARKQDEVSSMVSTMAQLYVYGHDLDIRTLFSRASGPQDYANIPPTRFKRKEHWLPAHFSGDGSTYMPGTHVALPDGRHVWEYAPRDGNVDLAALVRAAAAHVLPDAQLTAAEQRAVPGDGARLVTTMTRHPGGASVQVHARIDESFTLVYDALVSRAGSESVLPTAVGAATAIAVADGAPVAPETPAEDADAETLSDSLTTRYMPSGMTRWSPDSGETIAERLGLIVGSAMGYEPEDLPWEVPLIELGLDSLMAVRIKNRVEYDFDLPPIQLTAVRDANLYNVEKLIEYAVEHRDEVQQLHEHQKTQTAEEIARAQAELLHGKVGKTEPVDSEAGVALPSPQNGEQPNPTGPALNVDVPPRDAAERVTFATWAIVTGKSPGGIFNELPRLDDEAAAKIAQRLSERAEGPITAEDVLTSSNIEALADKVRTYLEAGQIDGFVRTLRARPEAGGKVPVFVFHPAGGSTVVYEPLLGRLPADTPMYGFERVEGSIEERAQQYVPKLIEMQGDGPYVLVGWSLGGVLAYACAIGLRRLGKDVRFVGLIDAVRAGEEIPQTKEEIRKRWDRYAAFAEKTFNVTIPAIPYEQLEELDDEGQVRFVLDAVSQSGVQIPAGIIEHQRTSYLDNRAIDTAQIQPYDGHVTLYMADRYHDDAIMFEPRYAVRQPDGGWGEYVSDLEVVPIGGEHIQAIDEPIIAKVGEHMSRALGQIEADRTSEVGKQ

MtTrpRS: 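Tryptophan-tRNA ligase, Mycobacterium tuberculosis (UniProt P9WFT3). Enzyme assay of tryptophanyl-tRNA synthetase; the read-out is not stated. Tested at 10 µM. Higher most likely means stronger inhibition; the record gives no direction and few retests gave an IC50. Size under these conditions: about 65,000 compounds, about 64 of them at 50% or above in at least one test.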
Pks13 thioesterase: 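Enzyme assay of the thioesterase domain of polyketide synthase 13; the read-out is not stated. Target: Polyketide synthase Pks13, Mycobacterium tuberculosis (UniProt I6X8D2). Tested at 30 µM. The record gives no direction; the compounds picked for IC50 retests had high values, so higher reads as stronger inhibition. About 67,000 compounds were tested under these conditions; 0.46% (about 300) showed 50% or more at least once.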

Compound | MtTrpRS | Pks13 thioesterase
CC(=O)N1CCc2[nH]cnc2C1C1=CCCN(CCn2cccc2)C1 (configuration not stated) | 2.899% | -2.076%
O=C(c1cccc(Cl)c1)C1CCCN(c2nnc(C3CCC3)o2)C1 (configuration not stated) | 3.003% | -60.24%
Cc1ccsc1CNC(=O)NC1CCCc2c1cnn2CCO (configuration not stated) | -1.599% | -14.46%
CCn1cnnc1CNC(=O)N1CCN(c2nccs2)CC1 | -0.9737% | -24.76%
Cc1cc(C(=O)N2CCCCC2c2nc3cc(F)ccc3[nH]2)no1 (configuration not stated) | -2.928% | -3.746%
Cn1cccc1C1CCCN1Cc1noc(C(C)(C)C)n1 (configuration not stated) | 0.6121% | 0.513%
CCC1=N[C@@]2(CC[C@@H]3CN(C(=O)NCc4ccccc4)C[C@@H]32)C(=O)N1 | -2.013% | -13.17%
O=C(Cn1ccc2cc(Br)ccc21)NCc1ccc(C(=O)O)cc1 | -0.06817% | 1.285%
O=C(NCCC1CN(Cc2c[nH]cn2)CCO1)c1ccccc1O (configuration not stated) | 2.099% | -25.22%
Cc1nc2c(cc1C(=O)Nc1ccccc1Cl)c(=O)n(C)c(=O)n2C | -0.9662% | -16.13%
COc1ccc(OC)c(C2CCN(C3CCOCC3)C2)c1 (configuration not stated) | 8.518% | -6.139%
COCCN1C2(CCN(CC3CC3)C2)c2ccccc2S1(=O)=O (configuration not stated) | 0.6478% | -12.64%
CN(C)CC1CN(c2ncnc3ccsc23)CCO1 (configuration not stated) | 2.26% | -17.59%
CN(C(=O)C1CCOCC1)[C@@H]1CCC[C@@H](N2CCOCC2)[C@@H]1O | - | 2.714%
Cc1nc(C2CCCNC2)cc(N(C)CCc2ccccc2)n1 (configuration not stated) | 0.1564% | -12.23%
CCc1cc(C(=O)N2CC[C@@H](c3ccc4c(c3)OCO4)[C@H](O)C2)[nH]n1 | -1.591% | -12.5%
COCCCN1CC2(CCCCN2C(=O)c2ccsc2)CC1=O (configuration not stated) | 0.07633% | 7.251%
Cc1nc(C)c2c(n1)CCN(C(=O)CN(C)C)CC2 | -5.004% | -38.33%
CC(CNC(=O)N1CCSCC1)Cc1cccs1 (configuration not stated) | -1.126% | -8.381%
O=C(NCc1nncn1C1CC1)c1ccc(F)c(COCC2CC2)c1 | 16.83% | -8.664%
CCc1nc(C)c(C(=O)N2CCNCC2C(=O)NCc2ccncc2)o1 (configuration not stated) | -6.495% | -0.2409%
O=C(CN1CCS(=O)(=O)CC1)Nc1ccc(N2CCCC2)nc1 | -6.762% | -3.176%
C[C@H](CCO)NS(=O)(=O)c1ccc(Br)cn1 | -3.753% | -6.765%
CN(C)C1(CNC(=O)c2c(O)cc(Cl)cc2Cl)CCOCC1 | 0.8039% | -1.285%
CC(C)(C)c1csc(CN2CCN(S(=O)(=O)c3cccnc3)CC2)n1 | 4.379% | -5.408%
c1cc2c(cc1CSCc1noc(C3CC3)n1)OCCO2 | -3.355% | 2.118%
Cc1noc(CN(C)C(=O)CCn2cnc3ccccc32)n1 | 0.6192% | -13.77%
CN1CCN(C(=O)c2ccccc2)CC(Cc2cc(N(C)C)ncn2)C1 (configuration not stated) | -4.581% | 7.457%
O=c1[nH]c2c(-c3ccccn3)nsc2c(=O)n1C1CCCCC1 | 2.087% | -3.235%
Cc1cccc(CN2CCCC2c2cccc(Nc3nccs3)n2)c1 (configuration not stated) | 18.6% | -16.11%
O=C(c1ncoc1C1CCCO1)N1CCCC2(CCCCC2)C1 (configuration not stated) | -1.754% | -107.7%
Cc1nc2cc(C(=O)N3C[C@@H](C(=O)O)[C@H](c4ccncc4)C3)ccc2[nH]1 | -7.033% | -25.35%
Cc1nc(C)n(C2CCCN(C(=O)c3ccc4c(c3)COC4)C2)n1 (configuration not stated) | -0.2916% | -5.076%
Cc1noc([C@H]2C[C@@H]3CCN(C(=O)C4CCOCC4)C[C@H]3O2)n1 | -1.657% | -20.92%
CNS(=O)(=O)c1ccc(CNC(=O)C2CN(C)CCO2)cc1 (configuration not stated) | -1.33% | -10.39%
COc1ncccc1NC(=O)C1CC(=O)N(Cc2ccccn2)C1 (configuration not stated) | -6.886% | -20.19%
c1cc(NCc2ccsc2)cc(-c2nnc[nH]2)c1 | 6.173% | -15.03%
O=C1NCC(C(=O)Nc2ncc(Cc3ccccc3)s2)N1 (configuration not stated) | 18.13% | -9.7%
CCCn1nnnc1COc1ccc(C(=O)OC)cc1OC | 2.227% | 7.931%
CC(=O)N(Cc1ncc(C(C)C)o1)C1CCN(CC2CCC2)C1 (configuration not stated) | -4.548% | -25.02%
O=C(NCc1ccc(Cl)cc1)N1CCN(CC(O)C2CC2)CC1 (configuration not stated) | -1.527% | 3.014%
c1ccc(N2CC3(CCN(Cc4cccnc4)C3)C2)nc1 | 0.436% | -19.7%
O=C1[C@@H]2CCN(CC3CCOCC3)C[C@@H]2OCCN1c1ccccc1 | 2.609% | -30.7%
CS(=O)(=O)N[C@H]1CN(C(=O)CCc2ccc(=O)[nH]n2)C[C@@H]1C1CC1 | -2.204% | 0.3058%
NCCN1C(=O)CC[C@H]2CN(Cc3ccc4occc4c3)CC[C@H]21 | 1.286% | 0.8372%
Cc1nn(C)c(C)c1CC(=O)N1CCCC(n2ccnc2)C1 (configuration not stated) | 2.827% | -16.39%
COc1cc(N2CCc3ncnc(-c4ccncc4)c3CC2)ncn1 | -7.685% | -26.18%
O=C(NCCCNC(=O)c1cccc(O)c1)NCc1ccccc1F | 2.436% | -26.89%
Cc1ccccc1C1(CNC(=O)NCCc2nnc3n2CCC3)CC1 | -2.225% | -34.6%

Repeated from the top, 6 entries:

For CC(=O)N1CCc2[nH]cnc2C1C1=CCCN(CCn2cccc2)C1 (configuration not stated) the result was MtTrpRS: 2.899%; Pks13 thioesterase: -2.076%.
For O=C(c1cccc(Cl)c1)C1CCCN(c2nnc(C3CCC3)o2)C1 (configuration not stated) the result was MtTrpRS: 3.003%; Pks13 thioesterase: -60.24%.
For Cc1ccsc1CNC(=O)NC1CCCc2c1cnn2CCO (configuration not stated) the result was MtTrpRS: -1.599%; Pks13 thioesterase: -14.46%.
For CCn1cnnc1CNC(=O)N1CCN(c2nccs2)CC1 the result was MtTrpRS: -0.9737%; Pks13 thioesterase: -24.76%.
For Cc1cc(C(=O)N2CCCCC2c2nc3cc(F)ccc3[nH]2)no1 (configuration not stated) the result was MtTrpRS: -2.928%; Pks13 thioesterase: -3.746%.
For Cn1cccc1C1CCCN1Cc1noc(C(C)(C)C)n1 (configuration not stated) the result was MtTrpRS: 0.6121%; Pks13 thioesterase: 0.513%.

The values are deposited in ChEMBL (CHEMBL3988442, “University of Dundee, Small-Polar-MMV Screening Library” (2021)).